Earlier results on one molecule are cited in US20180221332A1, “Flash-Melt Cannabinoid Formulations” (CannTab Therapeutics Limited, priority 2017, published 2018).

In the case of `CCCCCc1cc(O)c2c(c1)OC(C)(C)[C@@H]1CCC(C)=C[C@@H]21` [Dronabinol, (−)-trans-Δ^9-tetrahydrocannabinol], the solubility in water result is on record as “insoluble in water”.
